These are yes or no findings as the source states them, for the method shown. Some binding calls cover weakened binding; strength is not graded here.
Legend:
[1] = biological target: αvβ3 integrin on M21 tumor cells (UniProt P06756); experiment: M21 cell adhesion assay: uricase coated at 0-100 ug/ml, fluorescent M21 cells (express αvβ3 and αvβ5), bound cells read by total fluorescence
[2] = biological target: αvβ5 integrin on M21 tumor cells (UniProt P06756); experiment: as above

Amino acid sequences for entries named in this document (tags omitted). A change or cut given only in a name is not applied to a line headed by its entry.
UniProt P06756: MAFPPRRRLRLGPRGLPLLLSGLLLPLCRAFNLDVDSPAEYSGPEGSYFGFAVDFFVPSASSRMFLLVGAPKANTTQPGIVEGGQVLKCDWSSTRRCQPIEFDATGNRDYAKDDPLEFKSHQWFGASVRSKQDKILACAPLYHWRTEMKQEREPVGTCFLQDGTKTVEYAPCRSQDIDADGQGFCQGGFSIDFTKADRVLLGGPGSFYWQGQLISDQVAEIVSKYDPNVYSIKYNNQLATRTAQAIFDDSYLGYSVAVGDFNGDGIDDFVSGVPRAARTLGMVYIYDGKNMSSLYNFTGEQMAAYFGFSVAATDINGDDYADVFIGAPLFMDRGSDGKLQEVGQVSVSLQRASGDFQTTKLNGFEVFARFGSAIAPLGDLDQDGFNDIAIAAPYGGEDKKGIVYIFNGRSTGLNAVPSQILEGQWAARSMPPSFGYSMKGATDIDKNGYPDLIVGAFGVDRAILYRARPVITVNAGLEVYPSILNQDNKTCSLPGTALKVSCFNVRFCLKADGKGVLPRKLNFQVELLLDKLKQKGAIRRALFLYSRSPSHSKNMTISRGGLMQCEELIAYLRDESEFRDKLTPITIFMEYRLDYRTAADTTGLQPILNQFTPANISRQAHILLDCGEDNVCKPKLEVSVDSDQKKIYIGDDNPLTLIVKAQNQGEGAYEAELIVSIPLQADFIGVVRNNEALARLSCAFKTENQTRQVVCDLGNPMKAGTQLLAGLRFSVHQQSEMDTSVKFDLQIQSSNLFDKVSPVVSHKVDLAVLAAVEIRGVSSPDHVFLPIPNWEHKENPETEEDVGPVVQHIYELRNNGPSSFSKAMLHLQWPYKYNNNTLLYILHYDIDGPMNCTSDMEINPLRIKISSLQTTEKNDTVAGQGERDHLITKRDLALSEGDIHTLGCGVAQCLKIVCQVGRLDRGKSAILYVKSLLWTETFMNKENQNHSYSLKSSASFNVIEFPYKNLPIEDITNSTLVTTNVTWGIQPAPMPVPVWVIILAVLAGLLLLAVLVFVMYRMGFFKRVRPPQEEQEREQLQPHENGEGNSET

binding [1]: binds | binding [2]: binds
B1: RGD containing Arthrobacter globiformis uricase (enzyme)
chain: MGSHHHHHHGARQTATAETSTGTKVVLGQNQYGKAEVRLVKVTRNTARHEIQDLNVTSQLRGDFEAAHTAGDNAHVVATDTQKNTVYAFARDGFATTEEFLLRLGKHFTEGFDWVTGGRWAAQQFFWDRINDHDHAFSRNKSEVRTAVLEISGSEQAIVAGIEGLTVLKSTGSEFHGFPRDKYTTLQETTDRILATDVSARWRYNTVEVDFDAVYASVRGLLLKAFAETHSLALQQTMYEMGRAVIETHPEIDEIKMSLPNKHHFLVDLQPFGQDNPNEVFYAADRPYGLIEATIQREGSRAD

Source: US20210254024A1
